According to publication PMC7280298:

T1: 9xMyc-NRP1 (NAP1-RELATED PROTEIN 1, N-terminally 9xMyc-tagged) (Arabidopsis) (UniProt Q9CA59)
T1 sequence: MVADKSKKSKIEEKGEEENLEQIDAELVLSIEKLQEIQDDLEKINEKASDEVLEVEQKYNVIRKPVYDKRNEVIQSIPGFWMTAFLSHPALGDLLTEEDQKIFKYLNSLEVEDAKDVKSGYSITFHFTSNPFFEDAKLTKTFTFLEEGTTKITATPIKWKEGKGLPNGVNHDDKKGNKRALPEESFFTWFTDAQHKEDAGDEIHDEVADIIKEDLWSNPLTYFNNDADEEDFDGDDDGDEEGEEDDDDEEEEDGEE

T2: NRP2-9xMyc (NAP1-RELATED PROTEIN 2, C-terminally 9xMyc-tagged) (Arabidopsis) (UniProt Q8LC68)
T2 sequence: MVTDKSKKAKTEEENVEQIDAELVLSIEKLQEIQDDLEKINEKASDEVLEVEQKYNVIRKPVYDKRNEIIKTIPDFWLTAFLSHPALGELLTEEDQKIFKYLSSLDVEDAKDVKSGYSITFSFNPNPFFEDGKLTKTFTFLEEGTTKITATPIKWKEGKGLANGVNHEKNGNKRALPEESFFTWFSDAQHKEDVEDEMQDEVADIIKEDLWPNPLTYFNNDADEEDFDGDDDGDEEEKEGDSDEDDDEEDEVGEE

B1: 9xMyc-NRP1 (NAP1-RELATED PROTEIN 1, N-terminally 9xMyc-tagged) (protein, UniProt Q9CA59 1-256)
chain: MVADKSKKSKIEEKGEEENLEQIDAELVLSIEKLQEIQDDLEKINEKASDEVLEVEQKYNVIRKPVYDKRNEVIQSIPGFWMTAFLSHPALGDLLTEEDQKIFKYLNSLEVEDAKDVKSGYSITFHFTSNPFFEDAKLTKTFTFLEEGTTKITATPIKWKEGKGLPNGVNHDDKKGNKRALPEESFFTWFTDAQHKEDAGDEIHDEVADIIKEDLWSNPLTYFNNDADEEDFDGDDDGDEEGEEDDDDEEEEDGEE
B2: NRP2-9xMyc (NAP1-RELATED PROTEIN 2, C-terminally 9xMyc-tagged) (protein, UniProt Q8LC68 1-255)
chain: MVTDKSKKAKTEEENVEQIDAELVLSIEKLQEIQDDLEKINEKASDEVLEVEQKYNVIRKPVYDKRNEIIKTIPDFWLTAFLSHPALGELLTEEDQKIFKYLSSLDVEDAKDVKSGYSITFSFNPNPFFEDGKLTKTFTFLEEGTTKITATPIKWKEGKGLANGVNHEKNGNKRALPEESFFTWFSDAQHKEDVEDEMQDEVADIIKEDLWPNPLTYFNNDADEEDFDGDDDGDEEEKEGDSDEDDDEEDEVGEE

What was measured:
[1] = molecular target: T1, 9xMyc-NRP1 (NAP1-RELATED PROTEIN 1, N-terminally 9xMyc-tagged) (Arabidopsis); experiment: co-IP; α-Myc immunoprecipitation of Myc-tagged NRP1 or NRP2 from plant extracts; H2A.Z forms detected by western blot
[2] = molecular target: T2, NRP2-9xMyc (NAP1-RELATED PROTEIN 2, C-terminally 9xMyc-tagged) (Arabidopsis); experiment: as above
[3] = molecular target: Canonical histone H2A, endogenous (Arabidopsis (endogenous in Columbia-0 background plants)); experiment: co-IP; anti-H2A or anti-H2A.Z polyclonal antibody coupled to Dynabeads; lysate of 14 days old seedlings of tagged NRP lines in IP buffer (50 mM Tris pH 7.6, 150 mM NaCl, 5 mM MgCl2, 10% glycerol, 0.1% NP-40), overnight at 4 °C; tagged NRP detected by western blot; empty beads as negative control
[4] = molecular target: Histone variant H2A.Z (unmodified), endogenous (Arabidopsis (endogenous in Columbia-0 background plants)); experiment: as above

| binding [1] | binding [2] | binding [3] | binding [4] | Molecule |
| --- | --- | --- | --- | --- |
| binds | binds |  |  | Histone variant H2A.Z (unmodified), endogenous |
|  |  | binds | binds | B1 |
|  |  | binds | binds | B2 |

No constants are given. Whether binding was seen depends on the method and setting. Binding seen in cells or lysates may run through a third protein. Binding calls can cover weak binding; strength is not graded here. Tags and fused reporters may be left off the sequences shown.
